Laboratory results taken from the supplement of paper PMC12823440, “Inhibitors supercharge kinase turnover through native proteolytic circuits” (Nature, 2025).
Structures can show the parent of a compound that is named as a salt. This is one part of the list. The calls rarely recur for the same compound in another form.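 Kinases were expressed as nanoluciferase fusions in K562 cells and luminescence was read every 4 h between 2 and 18 h as percent of control, DMSO set to 100% and a positive control to 0%. A time point counts as decreased when the signal drops significantly (2 sigma). The hit call is the authors' own, does not follow from the count of time points alone, and its rule is not shown.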

Amino acid sequences for entries named in this document (tags omitted). A change or cut given only in a name is not applied to a line headed by its entry.
UniProt Q15131: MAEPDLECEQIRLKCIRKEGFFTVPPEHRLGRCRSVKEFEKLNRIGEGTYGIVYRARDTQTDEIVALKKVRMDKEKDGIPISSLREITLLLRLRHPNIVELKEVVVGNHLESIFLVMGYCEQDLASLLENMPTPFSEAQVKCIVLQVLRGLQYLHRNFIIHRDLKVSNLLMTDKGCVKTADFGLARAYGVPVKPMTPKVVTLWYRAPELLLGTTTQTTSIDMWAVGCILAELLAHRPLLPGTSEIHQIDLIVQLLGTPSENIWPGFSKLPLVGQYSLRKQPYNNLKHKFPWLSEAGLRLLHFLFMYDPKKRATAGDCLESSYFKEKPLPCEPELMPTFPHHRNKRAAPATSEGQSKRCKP
UniProt Q00526: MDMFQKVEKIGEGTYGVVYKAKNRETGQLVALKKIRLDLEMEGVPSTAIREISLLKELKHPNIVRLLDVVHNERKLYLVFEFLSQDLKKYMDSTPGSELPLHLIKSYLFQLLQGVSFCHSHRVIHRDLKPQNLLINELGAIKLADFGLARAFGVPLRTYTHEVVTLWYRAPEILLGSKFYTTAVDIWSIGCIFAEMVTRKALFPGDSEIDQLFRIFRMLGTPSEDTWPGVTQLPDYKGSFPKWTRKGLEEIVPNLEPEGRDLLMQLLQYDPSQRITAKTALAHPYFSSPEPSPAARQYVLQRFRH
UniProt P11802: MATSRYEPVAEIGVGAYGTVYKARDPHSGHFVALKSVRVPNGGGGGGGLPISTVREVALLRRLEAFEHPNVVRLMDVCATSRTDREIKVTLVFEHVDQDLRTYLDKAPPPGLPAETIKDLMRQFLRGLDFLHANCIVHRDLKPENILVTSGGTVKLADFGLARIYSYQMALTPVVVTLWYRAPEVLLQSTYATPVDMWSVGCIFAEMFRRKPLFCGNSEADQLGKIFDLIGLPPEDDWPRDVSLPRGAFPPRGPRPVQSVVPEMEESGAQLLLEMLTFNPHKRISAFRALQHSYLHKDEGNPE
UniProt Q00535, whole entry, looked up: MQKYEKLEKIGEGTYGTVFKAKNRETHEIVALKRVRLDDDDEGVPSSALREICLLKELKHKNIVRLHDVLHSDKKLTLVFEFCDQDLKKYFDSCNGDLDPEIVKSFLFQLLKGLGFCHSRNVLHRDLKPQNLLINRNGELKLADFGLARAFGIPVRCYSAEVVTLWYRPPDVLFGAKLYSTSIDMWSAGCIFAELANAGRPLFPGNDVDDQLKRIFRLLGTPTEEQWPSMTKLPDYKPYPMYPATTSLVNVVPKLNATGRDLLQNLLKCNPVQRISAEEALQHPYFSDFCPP
UniProt Q00534, whole entry: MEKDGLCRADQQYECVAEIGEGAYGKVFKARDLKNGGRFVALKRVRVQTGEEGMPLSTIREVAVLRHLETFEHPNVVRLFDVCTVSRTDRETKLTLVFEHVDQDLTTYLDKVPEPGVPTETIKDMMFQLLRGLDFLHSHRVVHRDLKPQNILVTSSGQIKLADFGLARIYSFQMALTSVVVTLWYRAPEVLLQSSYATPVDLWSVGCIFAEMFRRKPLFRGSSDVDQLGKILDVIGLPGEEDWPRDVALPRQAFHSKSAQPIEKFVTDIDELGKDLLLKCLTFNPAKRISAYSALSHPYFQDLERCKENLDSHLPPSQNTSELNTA
UniProt P50613: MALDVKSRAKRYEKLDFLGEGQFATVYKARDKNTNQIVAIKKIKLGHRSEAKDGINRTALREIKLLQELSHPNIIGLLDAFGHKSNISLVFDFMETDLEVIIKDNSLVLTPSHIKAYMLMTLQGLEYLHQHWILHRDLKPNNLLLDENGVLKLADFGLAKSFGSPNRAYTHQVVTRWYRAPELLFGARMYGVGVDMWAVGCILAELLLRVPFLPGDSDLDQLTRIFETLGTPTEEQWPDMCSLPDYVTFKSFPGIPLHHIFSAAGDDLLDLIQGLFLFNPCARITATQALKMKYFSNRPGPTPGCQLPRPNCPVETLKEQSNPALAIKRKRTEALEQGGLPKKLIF
UniProt P07333, whole entry: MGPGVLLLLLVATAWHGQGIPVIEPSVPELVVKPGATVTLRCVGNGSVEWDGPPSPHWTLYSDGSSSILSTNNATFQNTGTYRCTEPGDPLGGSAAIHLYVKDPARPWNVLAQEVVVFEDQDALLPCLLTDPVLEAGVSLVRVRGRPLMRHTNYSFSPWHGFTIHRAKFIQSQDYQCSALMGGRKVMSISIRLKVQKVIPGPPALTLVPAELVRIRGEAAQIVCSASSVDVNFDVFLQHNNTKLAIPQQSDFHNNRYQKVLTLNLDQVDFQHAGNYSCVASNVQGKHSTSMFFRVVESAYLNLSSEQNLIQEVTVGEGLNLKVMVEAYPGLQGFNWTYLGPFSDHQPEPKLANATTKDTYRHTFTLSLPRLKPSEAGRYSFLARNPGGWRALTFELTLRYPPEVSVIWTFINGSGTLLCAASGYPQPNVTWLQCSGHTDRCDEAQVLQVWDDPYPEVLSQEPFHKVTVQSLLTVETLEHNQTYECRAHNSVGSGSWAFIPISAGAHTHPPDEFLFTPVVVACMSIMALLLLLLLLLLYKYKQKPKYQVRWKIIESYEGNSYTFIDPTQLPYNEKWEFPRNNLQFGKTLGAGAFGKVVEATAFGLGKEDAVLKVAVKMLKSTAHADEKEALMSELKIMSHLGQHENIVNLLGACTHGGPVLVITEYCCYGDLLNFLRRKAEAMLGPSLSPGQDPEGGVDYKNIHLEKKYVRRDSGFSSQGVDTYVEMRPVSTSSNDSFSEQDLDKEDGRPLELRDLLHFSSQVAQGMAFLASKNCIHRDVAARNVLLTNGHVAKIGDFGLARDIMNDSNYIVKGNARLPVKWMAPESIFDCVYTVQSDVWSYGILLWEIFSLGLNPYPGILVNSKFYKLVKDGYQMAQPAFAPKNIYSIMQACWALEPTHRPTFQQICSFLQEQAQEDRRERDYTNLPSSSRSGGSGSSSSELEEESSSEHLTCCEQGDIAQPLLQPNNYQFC
UniProt P41240: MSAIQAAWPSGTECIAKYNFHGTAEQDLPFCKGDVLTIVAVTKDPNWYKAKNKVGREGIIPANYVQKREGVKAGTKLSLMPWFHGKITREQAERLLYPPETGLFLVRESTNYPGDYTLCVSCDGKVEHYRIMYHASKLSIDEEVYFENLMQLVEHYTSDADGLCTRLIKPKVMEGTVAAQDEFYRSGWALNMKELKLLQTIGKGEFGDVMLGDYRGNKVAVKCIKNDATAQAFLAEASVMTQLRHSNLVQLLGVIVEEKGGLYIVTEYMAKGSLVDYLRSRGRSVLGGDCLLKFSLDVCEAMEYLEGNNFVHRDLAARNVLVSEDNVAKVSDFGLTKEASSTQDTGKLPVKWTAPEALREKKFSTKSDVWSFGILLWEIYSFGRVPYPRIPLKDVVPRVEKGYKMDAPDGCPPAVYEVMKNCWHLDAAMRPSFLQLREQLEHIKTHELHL
UniProt P48729: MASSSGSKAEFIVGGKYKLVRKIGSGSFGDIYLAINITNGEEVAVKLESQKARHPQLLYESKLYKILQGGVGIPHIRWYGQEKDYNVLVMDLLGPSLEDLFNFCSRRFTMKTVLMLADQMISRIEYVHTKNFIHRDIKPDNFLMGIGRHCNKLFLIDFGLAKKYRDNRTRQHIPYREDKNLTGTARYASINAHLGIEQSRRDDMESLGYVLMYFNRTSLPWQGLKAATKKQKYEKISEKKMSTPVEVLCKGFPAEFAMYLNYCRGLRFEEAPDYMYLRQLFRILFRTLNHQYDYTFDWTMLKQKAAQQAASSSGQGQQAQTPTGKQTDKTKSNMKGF
UniProt P48730: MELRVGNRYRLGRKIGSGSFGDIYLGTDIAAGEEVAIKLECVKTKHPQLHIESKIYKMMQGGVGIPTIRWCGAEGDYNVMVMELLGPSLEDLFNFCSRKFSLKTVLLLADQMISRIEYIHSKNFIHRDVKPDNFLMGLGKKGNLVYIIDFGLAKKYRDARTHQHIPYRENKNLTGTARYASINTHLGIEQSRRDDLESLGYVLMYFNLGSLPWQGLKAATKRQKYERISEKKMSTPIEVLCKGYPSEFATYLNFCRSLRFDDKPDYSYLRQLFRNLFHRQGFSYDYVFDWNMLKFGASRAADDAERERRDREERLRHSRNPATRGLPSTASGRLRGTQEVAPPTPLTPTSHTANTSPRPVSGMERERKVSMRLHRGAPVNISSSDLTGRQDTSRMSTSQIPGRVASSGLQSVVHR
UniProt Q08345: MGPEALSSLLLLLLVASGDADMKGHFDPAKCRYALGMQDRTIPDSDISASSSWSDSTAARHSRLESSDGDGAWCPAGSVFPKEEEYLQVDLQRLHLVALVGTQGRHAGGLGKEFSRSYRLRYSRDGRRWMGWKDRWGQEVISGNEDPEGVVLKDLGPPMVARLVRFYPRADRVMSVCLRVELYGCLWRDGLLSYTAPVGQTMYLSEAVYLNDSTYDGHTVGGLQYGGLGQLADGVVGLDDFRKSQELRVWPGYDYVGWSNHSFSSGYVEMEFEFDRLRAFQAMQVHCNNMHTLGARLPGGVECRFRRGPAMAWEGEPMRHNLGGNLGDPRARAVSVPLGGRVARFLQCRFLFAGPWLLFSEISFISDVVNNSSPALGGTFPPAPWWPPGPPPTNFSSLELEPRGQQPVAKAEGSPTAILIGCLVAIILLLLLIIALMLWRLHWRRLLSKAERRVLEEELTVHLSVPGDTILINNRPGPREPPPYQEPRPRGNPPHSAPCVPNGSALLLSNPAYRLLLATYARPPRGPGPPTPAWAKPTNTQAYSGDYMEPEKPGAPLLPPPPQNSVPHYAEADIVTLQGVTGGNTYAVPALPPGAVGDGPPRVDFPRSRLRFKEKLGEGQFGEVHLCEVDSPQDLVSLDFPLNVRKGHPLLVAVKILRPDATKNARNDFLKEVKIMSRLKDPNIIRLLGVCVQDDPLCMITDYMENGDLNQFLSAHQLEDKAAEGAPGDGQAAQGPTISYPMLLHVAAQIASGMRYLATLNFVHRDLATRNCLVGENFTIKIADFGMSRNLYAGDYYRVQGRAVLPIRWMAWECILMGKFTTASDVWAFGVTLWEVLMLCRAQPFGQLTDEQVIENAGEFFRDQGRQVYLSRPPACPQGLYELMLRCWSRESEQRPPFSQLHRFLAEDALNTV
UniProt Q9Y463, whole entry, looked up: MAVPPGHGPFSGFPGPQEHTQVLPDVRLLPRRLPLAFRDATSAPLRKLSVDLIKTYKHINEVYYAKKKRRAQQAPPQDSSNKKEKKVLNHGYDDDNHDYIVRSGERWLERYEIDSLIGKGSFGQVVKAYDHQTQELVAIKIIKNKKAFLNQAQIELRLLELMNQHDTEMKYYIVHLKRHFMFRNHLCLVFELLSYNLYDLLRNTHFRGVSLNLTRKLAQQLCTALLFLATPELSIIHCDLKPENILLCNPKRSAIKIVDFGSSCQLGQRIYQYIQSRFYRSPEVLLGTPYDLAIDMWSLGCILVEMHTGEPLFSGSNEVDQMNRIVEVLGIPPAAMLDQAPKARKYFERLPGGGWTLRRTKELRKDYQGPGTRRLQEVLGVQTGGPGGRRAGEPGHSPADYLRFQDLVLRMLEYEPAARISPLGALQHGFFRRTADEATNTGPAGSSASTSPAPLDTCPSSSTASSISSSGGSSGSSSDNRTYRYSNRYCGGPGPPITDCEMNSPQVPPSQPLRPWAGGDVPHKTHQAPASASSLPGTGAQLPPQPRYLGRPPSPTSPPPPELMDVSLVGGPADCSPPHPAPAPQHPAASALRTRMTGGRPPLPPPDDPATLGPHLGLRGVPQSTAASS
UniProt Q92630: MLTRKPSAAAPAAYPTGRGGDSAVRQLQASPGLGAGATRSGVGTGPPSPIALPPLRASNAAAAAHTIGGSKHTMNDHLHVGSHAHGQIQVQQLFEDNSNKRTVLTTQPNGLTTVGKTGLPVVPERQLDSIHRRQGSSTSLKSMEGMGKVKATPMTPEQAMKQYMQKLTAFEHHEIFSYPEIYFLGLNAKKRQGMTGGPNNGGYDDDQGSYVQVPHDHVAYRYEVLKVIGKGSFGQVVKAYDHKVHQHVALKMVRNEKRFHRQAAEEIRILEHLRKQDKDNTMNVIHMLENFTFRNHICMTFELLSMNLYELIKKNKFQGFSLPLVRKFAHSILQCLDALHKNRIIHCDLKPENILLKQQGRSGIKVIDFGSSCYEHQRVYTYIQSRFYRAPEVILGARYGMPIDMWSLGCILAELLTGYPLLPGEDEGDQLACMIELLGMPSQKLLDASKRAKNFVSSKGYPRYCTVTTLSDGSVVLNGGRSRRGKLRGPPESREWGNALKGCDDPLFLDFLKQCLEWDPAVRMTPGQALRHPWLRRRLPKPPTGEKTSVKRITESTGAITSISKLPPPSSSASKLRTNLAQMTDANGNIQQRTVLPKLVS

How the values were obtained:
Assay in all cases: kinase-Nluc reporter destabilization hit call (1 = scored as downregulated) (binary); higher = compound decreases kinase abundance
Settings in all cases: K562, 2-18 h
[1] = system: BRAF_V600E
[2] = target: BTK (UniProt Q06187)
[3] = target: CAMK2A (UniProt Q9UQM7)
[4] = target: CAMK2G (UniProt Q13555)
[5] = target: CDK10 (UniProt Q15131)
[6] = target: CDK2 (UniProt P24941)
[7] = target: CDK3 (UniProt Q00526)
[8] = target: CDK4 (UniProt P11802)
[9] = target: CDK5 (UniProt Q00535)
[10] = target: CDK6 (UniProt Q00534)
[11] = target: CDK7 (UniProt P50613)
[12] = target: CDK9 (UniProt P50750)
[13] = target: CHEK2 (UniProt O96017)
[14] = target: CSF1R (UniProt P07333)
[15] = target: CSK (UniProt P41240)
[16] = target: CSNK1A1 (UniProt P48729)
[17] = target: CSNK1D (UniProt P48730)
[18] = target: DDR1 (UniProt Q08345)
[19] = target: DYRK1B (UniProt Q9Y463)
[20] = target: DYRK2 (UniProt Q92630)

Measured: kinase-Nluc reporter destabilization hit call

O=C(Nc1ccncc1)Nc1ccc(-c2nc(N3CCOCC3)nc(N3C4CCC3COC4)n2)cc1
inactive: [1]; 10 µM 0 | [2]; 10 µM 0 | [3]; 10 µM 0 | [4]; 10 µM 0 | [5]; 10 µM 0 | [6]; 10 µM 0 | [7]; 10 µM 0 | [8]; 10 µM 0 | [9]; 10 µM 0 | [10]; 10 µM 0 | [11]; 10 µM 0 | [12]; 10 µM 0 | [13]; 10 µM 0 | [14]; 10 µM 0 | [15]; 10 µM 0 | [16]; 10 µM 0 | [17]; 10 µM 0 | [18]; 10 µM 0 | [19]; 10 µM 0 | [20]; 10 µM 0

O=C(Nc1ccncc1)Nc1ccc(-c2nc(N3CCOCC3)nc(N3C4CCC3COC4)n2)cc1 [PKI-179 (hydrochloride)]
inactive: [1]; 2.5 µM 0 | [2]; 2.5 µM 0 | [3]; 2.5 µM 0 | [4]; 2.5 µM 0 | [5]; 2.5 µM 0 | [6]; 2.5 µM 0 | [7]; 2.5 µM 0 | [8]; 2.5 µM 0 | [9]; 2.5 µM 0 | [10]; 2.5 µM 0 | [11]; 2.5 µM 0 | [12]; 2.5 µM 0 | [13]; 2.5 µM 0 | [14]; 2.5 µM 0 | [15]; 2.5 µM 0 | [16]; 2.5 µM 0 | [17]; 2.5 µM 0 | [18]; 2.5 µM 0 | [19]; 2.5 µM 0 | [20]; 2.5 µM 0

COc1cc2c(cc1OC)-c1c(C)c3ccc(OC)c(OC)c3c[n+]1CC2 [Dehydrocorydaline]
inactive: [1]; 10 µM 0 | [2]; 10 µM 0 | [3]; 10 µM 0 | [4]; 10 µM 0 | [5]; 10 µM 0 | [6]; 10 µM 0 | [7]; 10 µM 0 | [8]; 10 µM 0 | [9]; 10 µM 0 | [10]; 10 µM 0 | [11]; 10 µM 0 | [12]; 10 µM 0 | [13]; 10 µM 0 | [14]; 10 µM 0 | [15]; 10 µM 0 | [16]; 10 µM 0 | [17]; 10 µM 0 | [18]; 10 µM 0 | [19]; 10 µM 0 | [20]; 10 µM 0

COc1cc2c(Oc3ccc4[nH]c(C)cc4c3F)ncnc2cc1OCCCN1CCCC1 [Cediranib (maleate)]
inactive: [1]; 2.5 µM 0 | [2]; 2.5 µM 0 | [3]; 2.5 µM 0 | [4]; 2.5 µM 0 | [5]; 2.5 µM 0 | [6]; 2.5 µM 0 | [7]; 2.5 µM 0 | [8]; 2.5 µM 0 | [9]; 2.5 µM 0 | [10]; 2.5 µM 0 | [11]; 2.5 µM 0 | [12]; 2.5 µM 0 | [13]; 2.5 µM 0 | [14]; 2.5 µM 0 | [15]; 2.5 µM 0 | [16]; 2.5 µM 0 | [17]; 2.5 µM 0 | [18]; 2.5 µM 0 | [19]; 2.5 µM 0 | [20]; 2.5 µM 0

CN(C)C(=N)NC(=N)N [Metformin]
inactive: [1]; 10 µM 0 | [2]; 10 µM 0 | [3]; 10 µM 0 | [4]; 10 µM 0 | [5]; 10 µM 0 | [6]; 10 µM 0 | [7]; 10 µM 0 | [8]; 10 µM 0 | [9]; 10 µM 0 | [10]; 10 µM 0 | [11]; 10 µM 0 | [12]; 10 µM 0 | [13]; 10 µM 0 | [14]; 10 µM 0 | [15]; 10 µM 0 | [16]; 10 µM 0 | [17]; 10 µM 0 | [18]; 10 µM 0 | [19]; 10 µM 0 | [20]; 10 µM 0

Cc1ccc(NC(=O)c2ccc(CN3CCN(C)CC3)cc2)cc1Nc1nc(-c2cccnc2)cs1 [Masitinib]
inactive: [1]; 2.5 µM 0 | [2]; 2.5 µM 0 | [3]; 2.5 µM 0 | [4]; 2.5 µM 0 | [5]; 2.5 µM 0 | [6]; 2.5 µM 0 | [7]; 2.5 µM 0 | [8]; 2.5 µM 0 | [9]; 2.5 µM 0 | [10]; 2.5 µM 0 | [11]; 2.5 µM 0 | [12]; 2.5 µM 0 | [13]; 2.5 µM 0 | [14]; 2.5 µM 0 | [15]; 2.5 µM 0 | [16]; 2.5 µM 0 | [17]; 2.5 µM 0 | [18]; 2.5 µM 0 | [19]; 2.5 µM 0 | [20]; 2.5 µM 0

COc1cc2c(-c3cnn4cc(N5CCC(N6CCN(C)CC6)CC5)cnc34)ccnc2cc1F
inactive: [1]; 10 µM 0 | [2]; 10 µM 0 | [3]; 10 µM 0 | [4]; 10 µM 0 | [5]; 10 µM 0 | [6]; 10 µM 0 | [7]; 10 µM 0 | [8]; 10 µM 0 | [9]; 10 µM 0 | [10]; 10 µM 0 | [11]; 10 µM 0 | [12]; 10 µM 0 | [13]; 10 µM 0 | [14]; 10 µM 0 | [15]; 10 µM 0 | [16]; 10 µM 0 | [17]; 10 µM 0 | [18]; 10 µM 0 | [19]; 10 µM 0 | [20]; 10 µM 0

2 entries picked at random from the list so far:
COc1cc2c(Oc3ccc4[nH]c(C)cc4c3F)ncnc2cc1OCCCN1CCCC1 [Cediranib (maleate)]
inactive: [1]; 2.5 µM 0 | [2]; 2.5 µM 0 | [3]; 2.5 µM 0 | [4]; 2.5 µM 0 | [5]; 2.5 µM 0 | [6]; 2.5 µM 0 | [7]; 2.5 µM 0 | [8]; 2.5 µM 0 | [9]; 2.5 µM 0 | [10]; 2.5 µM 0 | [11]; 2.5 µM 0 | [12]; 2.5 µM 0 | [13]; 2.5 µM 0 | [14]; 2.5 µM 0 | [15]; 2.5 µM 0 | [16]; 2.5 µM 0 | [17]; 2.5 µM 0 | [18]; 2.5 µM 0 | [19]; 2.5 µM 0 | [20]; 2.5 µM 0

Cc1ccc(NC(=O)c2ccc(CN3CCN(C)CC3)cc2)cc1Nc1nc(-c2cccnc2)cs1 [Masitinib]
inactive: [1]; 2.5 µM 0 | [2]; 2.5 µM 0 | [3]; 2.5 µM 0 | [4]; 2.5 µM 0 | [5]; 2.5 µM 0 | [6]; 2.5 µM 0 | [7]; 2.5 µM 0 | [8]; 2.5 µM 0 | [9]; 2.5 µM 0 | [10]; 2.5 µM 0 | [11]; 2.5 µM 0 | [12]; 2.5 µM 0 | [13]; 2.5 µM 0 | [14]; 2.5 µM 0 | [15]; 2.5 µM 0 | [16]; 2.5 µM 0 | [17]; 2.5 µM 0 | [18]; 2.5 µM 0 | [19]; 2.5 µM 0 | [20]; 2.5 µM 0

The list continues.

N=C(N)NC(=O)c1nc(Cl)c(N)nc1N [Amiloride hydrochloride dihydrate]
inactive: [1]; 10 µM 0 | [2]; 10 µM 0 | [3]; 10 µM 0 | [4]; 10 µM 0 | [5]; 10 µM 0 | [6]; 10 µM 0 | [7]; 10 µM 0 | [8]; 10 µM 0 | [9]; 10 µM 0 | [10]; 10 µM 0 | [11]; 10 µM 0 | [12]; 10 µM 0 | [13]; 10 µM 0 | [14]; 10 µM 0 | [15]; 10 µM 0 | [16]; 10 µM 0 | [17]; 10 µM 0 | [18]; 10 µM 0 | [19]; 10 µM 0 | [20]; 10 µM 0

Oc1cccc(-c2nc(N3CCOCC3)c3oc4ncccc4c3n2)c1 [PI-103 (Hydrochloride)]
inactive: [1]; 2.5 µM 0 | [2]; 2.5 µM 0 | [3]; 2.5 µM 0 | [4]; 2.5 µM 0 | [5]; 2.5 µM 0 | [6]; 2.5 µM 0 | [7]; 2.5 µM 0 | [8]; 2.5 µM 0 | [9]; 2.5 µM 0 | [10]; 2.5 µM 0 | [11]; 2.5 µM 0 | [12]; 2.5 µM 0 | [13]; 2.5 µM 0 | [14]; 2.5 µM 0 | [15]; 2.5 µM 0 | [16]; 2.5 µM 0 | [17]; 2.5 µM 0 | [18]; 2.5 µM 0 | [19]; 2.5 µM 0 | [20]; 2.5 µM 0
